Data taken from the supplement of paper PMC10849652.
The list shows a part of the results.

By UniProt entry, the sequences of proteins in these tests, tags left out. Where a name states a change or a piece, a line headed by the entry shows the natural chain unless it says otherwise.
UniProt O75390: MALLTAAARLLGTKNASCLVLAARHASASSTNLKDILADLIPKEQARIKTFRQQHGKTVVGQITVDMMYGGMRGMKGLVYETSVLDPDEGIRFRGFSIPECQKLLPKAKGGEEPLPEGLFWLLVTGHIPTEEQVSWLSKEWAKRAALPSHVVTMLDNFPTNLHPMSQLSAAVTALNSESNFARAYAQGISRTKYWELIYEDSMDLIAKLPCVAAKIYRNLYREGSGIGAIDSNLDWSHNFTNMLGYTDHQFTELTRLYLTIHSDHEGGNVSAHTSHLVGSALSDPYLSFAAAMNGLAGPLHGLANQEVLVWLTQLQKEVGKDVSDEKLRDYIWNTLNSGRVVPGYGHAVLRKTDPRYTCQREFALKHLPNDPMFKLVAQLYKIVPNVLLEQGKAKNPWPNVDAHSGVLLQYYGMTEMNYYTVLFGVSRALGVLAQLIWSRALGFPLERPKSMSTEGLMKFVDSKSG
UniProt O75629: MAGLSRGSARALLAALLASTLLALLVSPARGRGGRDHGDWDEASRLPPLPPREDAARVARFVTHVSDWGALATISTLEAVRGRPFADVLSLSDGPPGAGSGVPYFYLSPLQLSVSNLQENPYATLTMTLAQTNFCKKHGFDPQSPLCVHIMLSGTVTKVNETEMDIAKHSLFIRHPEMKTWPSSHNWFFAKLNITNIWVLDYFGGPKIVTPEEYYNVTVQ
UniProt P21291: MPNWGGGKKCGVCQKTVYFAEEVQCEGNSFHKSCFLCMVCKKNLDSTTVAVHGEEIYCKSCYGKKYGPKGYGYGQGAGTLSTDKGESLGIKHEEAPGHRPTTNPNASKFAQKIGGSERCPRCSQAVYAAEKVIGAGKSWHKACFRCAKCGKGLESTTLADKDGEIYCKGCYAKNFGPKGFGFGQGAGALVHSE
UniProt Q9NTM9: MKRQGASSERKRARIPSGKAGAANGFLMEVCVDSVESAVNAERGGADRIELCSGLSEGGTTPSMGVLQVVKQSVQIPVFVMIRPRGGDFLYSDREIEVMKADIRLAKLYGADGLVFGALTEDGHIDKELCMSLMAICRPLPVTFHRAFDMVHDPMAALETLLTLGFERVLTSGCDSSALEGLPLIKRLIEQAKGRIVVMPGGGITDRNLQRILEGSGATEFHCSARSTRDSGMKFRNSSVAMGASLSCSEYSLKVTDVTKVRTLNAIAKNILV
UniProt Q9Y6M4: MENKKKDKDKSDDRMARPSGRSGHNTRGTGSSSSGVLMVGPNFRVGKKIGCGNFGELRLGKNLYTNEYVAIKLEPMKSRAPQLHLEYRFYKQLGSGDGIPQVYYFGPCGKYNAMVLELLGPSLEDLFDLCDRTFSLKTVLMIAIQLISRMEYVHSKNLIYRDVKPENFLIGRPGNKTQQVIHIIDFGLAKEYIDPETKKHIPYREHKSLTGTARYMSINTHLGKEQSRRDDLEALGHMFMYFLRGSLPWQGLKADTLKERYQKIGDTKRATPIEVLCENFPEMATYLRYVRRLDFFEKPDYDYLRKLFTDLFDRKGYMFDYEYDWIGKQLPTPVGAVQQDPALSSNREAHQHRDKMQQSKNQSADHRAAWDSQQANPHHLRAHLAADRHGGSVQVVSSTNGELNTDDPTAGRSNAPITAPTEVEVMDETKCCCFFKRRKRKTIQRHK
UniProt O95825: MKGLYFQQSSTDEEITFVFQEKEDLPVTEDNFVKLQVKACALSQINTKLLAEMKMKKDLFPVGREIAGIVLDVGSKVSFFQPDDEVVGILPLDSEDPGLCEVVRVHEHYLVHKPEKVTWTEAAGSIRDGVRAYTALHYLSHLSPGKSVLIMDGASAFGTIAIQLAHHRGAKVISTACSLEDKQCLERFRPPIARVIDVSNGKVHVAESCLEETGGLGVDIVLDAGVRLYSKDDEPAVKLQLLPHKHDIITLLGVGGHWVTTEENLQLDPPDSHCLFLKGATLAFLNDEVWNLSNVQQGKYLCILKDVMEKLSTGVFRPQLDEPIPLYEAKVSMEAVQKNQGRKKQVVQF
UniProt E9PJD7, whole entry, looked up: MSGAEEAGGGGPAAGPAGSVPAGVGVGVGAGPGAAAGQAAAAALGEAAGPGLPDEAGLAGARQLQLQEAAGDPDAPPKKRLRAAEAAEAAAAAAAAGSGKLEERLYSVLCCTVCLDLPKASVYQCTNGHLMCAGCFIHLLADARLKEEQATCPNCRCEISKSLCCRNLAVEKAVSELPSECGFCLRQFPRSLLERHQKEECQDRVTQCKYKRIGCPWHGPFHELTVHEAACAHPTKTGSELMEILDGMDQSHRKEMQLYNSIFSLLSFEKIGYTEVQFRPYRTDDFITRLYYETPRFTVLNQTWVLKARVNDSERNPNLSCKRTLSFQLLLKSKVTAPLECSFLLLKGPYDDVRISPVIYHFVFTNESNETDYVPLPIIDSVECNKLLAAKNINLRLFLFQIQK
UniProt P07711: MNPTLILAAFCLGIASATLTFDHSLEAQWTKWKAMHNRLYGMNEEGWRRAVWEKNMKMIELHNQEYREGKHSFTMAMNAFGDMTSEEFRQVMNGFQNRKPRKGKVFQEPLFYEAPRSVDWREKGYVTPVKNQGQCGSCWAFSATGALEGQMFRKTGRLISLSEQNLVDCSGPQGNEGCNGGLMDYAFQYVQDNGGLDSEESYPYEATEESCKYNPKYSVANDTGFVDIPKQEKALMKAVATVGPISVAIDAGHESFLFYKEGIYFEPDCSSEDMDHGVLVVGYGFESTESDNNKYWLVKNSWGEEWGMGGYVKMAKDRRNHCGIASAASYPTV
UniProt Q14247: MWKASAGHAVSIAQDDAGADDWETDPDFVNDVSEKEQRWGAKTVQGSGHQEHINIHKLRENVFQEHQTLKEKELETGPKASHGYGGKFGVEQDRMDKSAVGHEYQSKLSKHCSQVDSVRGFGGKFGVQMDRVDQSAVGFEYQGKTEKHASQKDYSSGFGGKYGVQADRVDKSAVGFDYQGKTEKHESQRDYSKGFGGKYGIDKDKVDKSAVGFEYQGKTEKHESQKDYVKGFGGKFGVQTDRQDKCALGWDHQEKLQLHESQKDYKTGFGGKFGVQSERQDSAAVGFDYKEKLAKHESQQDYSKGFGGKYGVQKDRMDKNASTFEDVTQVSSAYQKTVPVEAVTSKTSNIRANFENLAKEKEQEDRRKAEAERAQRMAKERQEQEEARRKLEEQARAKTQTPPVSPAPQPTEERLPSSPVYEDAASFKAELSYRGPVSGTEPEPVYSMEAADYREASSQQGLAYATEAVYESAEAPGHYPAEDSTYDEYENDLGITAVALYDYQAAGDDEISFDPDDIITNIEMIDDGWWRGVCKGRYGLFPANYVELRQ
UniProt Q93034, whole entry, looked up: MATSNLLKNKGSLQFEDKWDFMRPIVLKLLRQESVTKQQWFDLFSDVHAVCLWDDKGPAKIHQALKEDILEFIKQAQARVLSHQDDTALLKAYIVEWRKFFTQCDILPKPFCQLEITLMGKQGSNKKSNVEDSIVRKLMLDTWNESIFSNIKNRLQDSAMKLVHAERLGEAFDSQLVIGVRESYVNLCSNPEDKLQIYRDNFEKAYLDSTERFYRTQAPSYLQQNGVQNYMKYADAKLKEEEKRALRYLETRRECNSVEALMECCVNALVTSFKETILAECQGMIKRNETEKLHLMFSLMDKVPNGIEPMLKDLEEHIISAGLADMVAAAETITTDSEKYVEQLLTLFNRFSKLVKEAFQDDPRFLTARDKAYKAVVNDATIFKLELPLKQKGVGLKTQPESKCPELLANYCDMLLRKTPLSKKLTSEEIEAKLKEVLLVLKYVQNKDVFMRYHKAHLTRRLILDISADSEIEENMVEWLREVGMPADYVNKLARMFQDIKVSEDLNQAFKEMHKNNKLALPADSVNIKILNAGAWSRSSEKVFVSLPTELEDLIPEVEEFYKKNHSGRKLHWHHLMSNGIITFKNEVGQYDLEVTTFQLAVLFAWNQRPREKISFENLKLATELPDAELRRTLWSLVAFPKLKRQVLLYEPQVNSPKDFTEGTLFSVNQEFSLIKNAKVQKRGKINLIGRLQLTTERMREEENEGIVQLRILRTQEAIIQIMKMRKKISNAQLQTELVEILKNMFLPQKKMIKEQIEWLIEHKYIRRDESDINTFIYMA
UniProt Q9H467: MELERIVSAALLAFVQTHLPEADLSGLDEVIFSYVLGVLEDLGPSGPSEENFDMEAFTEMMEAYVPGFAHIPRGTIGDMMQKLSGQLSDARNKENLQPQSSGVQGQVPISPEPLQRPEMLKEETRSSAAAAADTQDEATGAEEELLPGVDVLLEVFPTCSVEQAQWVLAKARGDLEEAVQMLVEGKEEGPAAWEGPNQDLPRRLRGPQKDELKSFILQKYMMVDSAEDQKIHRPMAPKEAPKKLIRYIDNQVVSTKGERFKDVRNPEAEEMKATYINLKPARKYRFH
UniProt Q96F07, whole entry, looked up: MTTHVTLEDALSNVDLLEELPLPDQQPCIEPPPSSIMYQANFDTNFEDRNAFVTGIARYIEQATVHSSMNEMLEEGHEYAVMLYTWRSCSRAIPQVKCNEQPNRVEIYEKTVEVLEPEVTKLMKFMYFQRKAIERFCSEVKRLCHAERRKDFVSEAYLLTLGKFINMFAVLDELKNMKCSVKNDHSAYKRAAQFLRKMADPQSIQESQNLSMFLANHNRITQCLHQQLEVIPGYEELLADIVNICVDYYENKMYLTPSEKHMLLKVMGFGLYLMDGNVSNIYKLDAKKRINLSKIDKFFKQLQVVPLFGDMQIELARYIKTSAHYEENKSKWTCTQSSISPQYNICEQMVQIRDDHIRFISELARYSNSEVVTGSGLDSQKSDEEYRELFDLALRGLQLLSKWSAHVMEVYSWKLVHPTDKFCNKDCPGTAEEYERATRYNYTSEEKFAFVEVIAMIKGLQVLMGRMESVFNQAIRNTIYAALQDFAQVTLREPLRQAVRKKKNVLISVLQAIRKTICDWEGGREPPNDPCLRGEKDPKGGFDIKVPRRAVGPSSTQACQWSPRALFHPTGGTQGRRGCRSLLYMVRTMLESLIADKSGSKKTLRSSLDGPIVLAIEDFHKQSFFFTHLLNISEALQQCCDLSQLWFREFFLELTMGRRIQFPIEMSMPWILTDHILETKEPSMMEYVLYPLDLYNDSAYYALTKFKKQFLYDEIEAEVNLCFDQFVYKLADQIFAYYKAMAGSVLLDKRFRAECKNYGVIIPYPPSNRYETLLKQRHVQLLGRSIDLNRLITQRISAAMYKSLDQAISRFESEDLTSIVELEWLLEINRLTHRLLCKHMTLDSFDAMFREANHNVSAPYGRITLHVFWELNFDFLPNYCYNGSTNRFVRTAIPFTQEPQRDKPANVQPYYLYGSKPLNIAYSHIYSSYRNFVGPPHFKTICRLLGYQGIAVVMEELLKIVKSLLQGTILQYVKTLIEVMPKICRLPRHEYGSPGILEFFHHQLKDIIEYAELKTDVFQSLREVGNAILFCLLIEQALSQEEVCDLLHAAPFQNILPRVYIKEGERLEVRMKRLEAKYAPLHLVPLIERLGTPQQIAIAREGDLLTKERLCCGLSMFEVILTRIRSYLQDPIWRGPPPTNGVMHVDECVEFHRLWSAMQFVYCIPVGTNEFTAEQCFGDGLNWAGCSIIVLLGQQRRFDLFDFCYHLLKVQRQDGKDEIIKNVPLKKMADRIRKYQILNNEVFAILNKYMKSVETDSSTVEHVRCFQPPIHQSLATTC
UniProt Q6UW02: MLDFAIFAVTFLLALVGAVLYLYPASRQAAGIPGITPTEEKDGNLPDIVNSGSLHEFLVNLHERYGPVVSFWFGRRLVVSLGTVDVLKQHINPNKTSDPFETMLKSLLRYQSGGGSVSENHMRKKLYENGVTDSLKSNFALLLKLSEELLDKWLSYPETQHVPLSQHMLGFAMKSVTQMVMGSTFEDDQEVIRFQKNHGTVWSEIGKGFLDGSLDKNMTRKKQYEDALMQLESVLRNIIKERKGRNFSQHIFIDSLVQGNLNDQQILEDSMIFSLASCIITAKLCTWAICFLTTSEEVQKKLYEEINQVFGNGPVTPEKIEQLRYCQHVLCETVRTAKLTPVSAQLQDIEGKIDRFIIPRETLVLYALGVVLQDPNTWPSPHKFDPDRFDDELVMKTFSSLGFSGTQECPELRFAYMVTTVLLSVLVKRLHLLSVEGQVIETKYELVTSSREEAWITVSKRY
UniProt Q08257: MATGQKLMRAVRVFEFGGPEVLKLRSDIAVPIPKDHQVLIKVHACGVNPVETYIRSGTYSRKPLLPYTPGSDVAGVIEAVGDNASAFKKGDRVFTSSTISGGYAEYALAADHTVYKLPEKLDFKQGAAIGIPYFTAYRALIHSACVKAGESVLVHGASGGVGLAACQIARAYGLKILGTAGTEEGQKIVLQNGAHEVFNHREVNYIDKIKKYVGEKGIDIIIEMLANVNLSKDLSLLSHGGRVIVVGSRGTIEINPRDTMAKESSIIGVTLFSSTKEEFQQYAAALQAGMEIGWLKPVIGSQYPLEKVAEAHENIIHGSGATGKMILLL

Tests used:
Assay in all cases: log2 fold change, soluble protein after heating vs DMSO (PISA); higher = thermal stabilisation; K562 lysate, 10 uM; active = over 0.2 and 3.5 SD of the protein, either way, in both replicates (recomputed)
nilotinib = compound: Cc1cn(-c2cc(NC(=O)c3ccc(C)c(Nc4nccc(-c5cccnc5)n4)c3)cc(C(F)(F)F)c2)cn1 [nilotinib]
Method in brief: (§1)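 K562 pellets were dounce-homogenised in PBS pH 7.4 containing 1 mM MgCl2, and the crude extract, at 1 mg/mL protein, was exposed to 10 μM compound for 30 min. Aliquots were heated for 3 min across 48°C-58°C, pooled, brought to 0.5% NP-40 at 4°C and spun at 21,000xg for 90 min, with the supernatant taken as soluble protein. TMTpro 16plex LC-MS/MS with equalised channel sums quantified that protein. Values are log-two fold changes in thermal stability relative to solvent controls, taken from duplicates.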

[1] = compound: Cc1nc(Nc2n[nH]c3c2CN(C(=O)N[C@H](CN(C)C)c2ccccc2)C3(C)C)c2sccc2n1
Method in brief: as §1

dasatinib = compound: Cc1nc(Nc2ncc(C(=O)Nc3c(C)cccc3Cl)s2)cc(N2CCN(CCO)CC2)n1 [dasatinib]
Method in brief: as §1

[2] = compound: Cc1ncc(-c2ccnc(Nc3ccc(S(C)(=O)=O)cc3)n2)n1C(C)C
Method in brief: as §1

[3] = compound: Cn1cc(-c2ccc3c(c2)CCN3C(=O)Cc2cccc(C(F)(F)F)c2)c2c(N)ncnc21
Method in brief: as §1

quisinostat = compound: Cn1cc(CNCC2CCN(c3ncc(C(=O)NO)cn3)CC2)c2ccccc21 [quisinostat]
Method in brief: as §1

tipifarnib = compound: Cn1cncc1[C@@](N)(c1ccc(Cl)cc1)c1ccc2c(c1)c(-c1cccc(Cl)c1)cc(=O)n2C [tipifarnib]
Method in brief: as §1

[4] = compound: NC(=O)Nc1cc(-c2cccc(F)c2)sc1C(=O)N[C@H]1CCCNC1
Method in brief: as §1

[5] = compound: NC(=O)c1cnc(N[C@@H]2CCCC[C@@H]2N)nc1Nc1cccc(-n2nccn2)c1
Method in brief: as §1

[6] = compound: NC1(c2ccc(-c3nc4ccn5c(=O)[nH]nc5c4cc3-c3ccccc3)cc2)CCC1
Method in brief: as §1

[7] = compound: NCC(=O)Nc1ccc(-n2nc(C(F)(F)F)cc2-c2ccc3c(ccc4ccccc43)c2)cc1
Method in brief: as §1

vorinostat = compound: O=C(CCCCCCC(=O)Nc1ccccc1)NO [vorinostat]
Method in brief: as §1

silmitasertib = compound: O=C(O)c1ccc2c(c1)nc(Nc1cccc(Cl)c1)c1ccncc12 [silmitasertib]
Method in brief: as §1

[8] = compound: O=C1NC(=O)C(c2cnc3ccccn23)=C1c1cn2c3c(cc(F)cc13)CN(C(=O)N1CCCCC1)CC2
Method in brief: as §1

entospletinib = compound: c1cn2cc(-c3ccc4cn[nH]c4c3)nc(Nc3ccc(N4CCOCC4)cc3)c2n1 [entospletinib]
Method in brief: as §1

Target	log2 fold change (nilotinib)	log2 fold change [1]	log2 fold change (dasatinib)	log2 fold change [2]	log2 fold change [3]	log2 fold change (quisinostat)	log2 fold change (tipifarnib)	log2 fold change [4]	log2 fold change [5]	log2 fold change [6]	log2 fold change [7]	log2 fold change (vorinostat)	log2 fold change (silmitasertib)	log2 fold change [8]	log2 fold change (entospletinib)
CTR9 (UniProt Q6PD62)	inactive: 0.014	inactive: 0.007	inactive: -0.016	inactive: -0.007	inactive: 0.008	inactive: -0.007	inactive: -0.054	inactive: 0.001	inactive: -0.007	inactive: 0.018	inactive: -0.023	inactive: -0.088	inactive: 0.016	inactive: -0.029	inactive: 0.024
CS (UniProt O75390)	inactive: 0.008	inactive: -0.019	inactive: -0.009	inactive: -0.002	inactive: -0.024	inactive: -0.017	inactive: 0.022	inactive: -0.017	inactive: -0.004	inactive: -0.018	inactive: 0.009	inactive: 0.046	inactive: 0.014	inactive: -0.012	inactive: 0.01
CREG1 (UniProt O75629)	inactive: 0.114	inactive: -0.036	inactive: -0.015	inactive: 0.001	inactive: -0.016	inactive: 0.021	inactive: 0.008	inactive: 0	inactive: -0.016	inactive: 0.015	inactive: -0.04	inactive: 0.115	inactive: -0.139	inactive: 0.059	inactive: -0.004
CSRP1 (UniProt P21291)	inactive: 0.049	inactive: 0.044	inactive: 0.046	inactive: 0.054	inactive: -0.041	inactive: 0.024	inactive: -0.015	inactive: -0.05	inactive: -0.009	inactive: -0.028	inactive: 0.082	inactive: 0.094	inactive: -0.009	inactive: 0.015	inactive: -0.025
CUTC (UniProt Q9NTM9)	inactive: -0.052	inactive: 0.048	inactive: 0.025	inactive: 0	inactive: 0.036	inactive: -0.019	inactive: 0.018	inactive: -0.007	inactive: 0.003	inactive: -0.029	inactive: -0.017	inactive: 0.132	inactive: -0.062	inactive: 0	inactive: 0.015
CSNK1G3 (UniProt Q9Y6M4)	inactive: -0.029	active: 0.428	inactive: 0.002	active: 0.388	inactive: 0.014	inactive: -0.067	inactive: 0.001	active: 0.397	inactive: 0	inactive: 0.086	inactive: -0.004	inactive: -0.011	inactive: 0.055	inactive: -0.029	inactive: 0.039
CUL2 isoform 2 (UniProt Q13617)	inactive: 0.016	inactive: 0.011	inactive: -0.009	inactive: 0	inactive: 0.015	inactive: 0.018	inactive: 0.012	inactive: -0.003	inactive: -0.013	inactive: 0.016	inactive: 0.013	inactive: 0.009	inactive: -0.005	inactive: -0.011	inactive: 0.043
CRYZL1 (UniProt O95825)	inactive: -0.006	inactive: 0.022	inactive: 0.021	inactive: 0.015	inactive: -0.028	inactive: 0.006	inactive: -0.006	inactive: 0.039	inactive: -0.021	inactive: -0.032	inactive: 0.008	inactive: 0.128	inactive: -0.026	inactive: -0.01	inactive: -0.014
CRKL (UniProt P46109)	inactive: 0.019	inactive: 0.004	inactive: 0.002	inactive: -0.013	inactive: -0.013	inactive: -0.019	inactive: 0.014	inactive: -0.013	inactive: -0.005	inactive: 0.015	inactive: 0.005	inactive: 0.121	inactive: -0.004	inactive: 0.024	inactive: -0.001
CYHR1 (UniProt E9PJD7)	inactive: 0.008	inactive: 0.003	inactive: 0.073	inactive: 0.002	inactive: 0.032	inactive: 0.012	inactive: -0.022	inactive: 0.054	inactive: -0.027	inactive: -0.042	inactive: 0.016	inactive: -0.067	inactive: -0.023	inactive: 0.03	inactive: 0.11
CUL3 (UniProt Q13618)	inactive: -0.014	inactive: 0.011	inactive: 0.009	inactive: -0.01	inactive: 0.005	inactive: 0.007	inactive: 0.036	inactive: -0.015	inactive: 0.011	inactive: 0.005	inactive: 0.01	inactive: -0.119	inactive: 0.023	inactive: -0.008	inactive: 0.006
CTSL (UniProt P07711)	inactive: 0	inactive: 0.005	inactive: -0.003	inactive: 0.007	inactive: 0.018	inactive: -0.042	inactive: 0.03	inactive: 0.006	inactive: 0.034	inactive: -0.001	inactive: 0	inactive: 0.121	inactive: -0.044	inactive: 0.051	inactive: 0.04
CTTN isoform 2 (UniProt Q14247)	inactive: -0.03	inactive: 0.012	inactive: -0.006	inactive: -0.015	inactive: -0.038	inactive: 0.023	inactive: 0.003	inactive: -0.027	inactive: -0.013	inactive: -0.012	inactive: 0.022	inactive: 0.102	inactive: -0.03	inactive: 0.015	inactive: 0.022
CUSTOS (UniProt Q96C57)	inactive: 0.061	inactive: -0.005	inactive: 0.025	inactive: -0.034	inactive: -0.007	inactive: -0.039	inactive: -0.021	inactive: 0.027	inactive: 0.002	inactive: 0.033	inactive: 0.079	inactive: 0.079	inactive: -0.01	inactive: 0.052	inactive: 0
CREBBP (UniProt Q92793)	inactive: 0.001	inactive: -0.029	inactive: -0.051	inactive: 0.049	inactive: 0.023	inactive: -0.012	inactive: 0.028	inactive: 0.006	inactive: 0	inactive: -0.007	inactive: 0.018	inactive: -0.276	inactive: 0.15	inactive: -0.018	inactive: 0.04
CUL5 (UniProt Q93034)	inactive: 0	inactive: -0.035	inactive: 0.007	inactive: -0.009	inactive: 0.026	inactive: -0.006	inactive: 0.014	inactive: -0.007	inactive: 0.001	inactive: 0.001	inactive: 0.008	inactive: 0.019	inactive: 0.003	inactive: -0.005	inactive: 0.004
CUEDC2 (UniProt Q9H467)	inactive: -0.038	inactive: 0.055	inactive: 0.015	inactive: 0.028	inactive: 0.009	inactive: -0.046	inactive: 0.009	inactive: -0.012	inactive: -0.021	inactive: 0.016	inactive: -0.01	inactive: 0.151	inactive: -0.012	inactive: 0.003	inactive: 0.066
CYFIP2 (UniProt Q96F07)	inactive: 0.023	inactive: -0.049	inactive: 0.005	inactive: -0.007	inactive: 0.009	inactive: -0.014	inactive: -0.005	inactive: -0.008	inactive: 0.001	inactive: -0.024	inactive: -0.04	inactive: -0.041	inactive: 0.015	inactive: 0.013	inactive: 0.005
CYB5R3 isoform 3 (UniProt P00387)	inactive: -0.017	inactive: -0.006	inactive: -0.023	inactive: 0.027	inactive: -0.012	inactive: -0.061	inactive: -0.005	inactive: 0.026	inactive: -0.013	inactive: -0.006	inactive: 0.028	inactive: 0.081	inactive: -0.044	inactive: 0.006	inactive: 0.06
CYP20A1 (UniProt Q6UW02)	inactive: 0.035	inactive: -0.071	inactive: 0.007	inactive: -0.013	inactive: 0	inactive: 0.018	inactive: 0.001	inactive: -0.039	inactive: 0.023	inactive: 0.015	inactive: -0.002	inactive: 0.105	inactive: -0.016	inactive: -0.042	inactive: -0.004
CRYZ (UniProt Q08257)	inactive: 0.02	inactive: -0.021	inactive: 0	inactive: 0.014	inactive: -0.011	inactive: -0.027	inactive: 0.007	inactive: -0.019	inactive: -0.005	inactive: 0.003	inactive: 0.002	inactive: 0.124	inactive: -0.022	inactive: -0.001	inactive: 0.022

A stretch of the results above:
Target	log2 fold change (nilotinib)	log2 fold change [1]	log2 fold change (dasatinib)	log2 fold change [2]	log2 fold change [3]	log2 fold change (quisinostat)	log2 fold change (tipifarnib)	log2 fold change [4]	log2 fold change [5]	log2 fold change [6]	log2 fold change [7]	log2 fold change (vorinostat)	log2 fold change (silmitasertib)	log2 fold change [8]	log2 fold change (entospletinib)
CUEDC2 (UniProt Q9H467)	inactive: -0.038	inactive: 0.055	inactive: 0.015	inactive: 0.028	inactive: 0.009	inactive: -0.046	inactive: 0.009	inactive: -0.012	inactive: -0.021	inactive: 0.016	inactive: -0.01	inactive: 0.151	inactive: -0.012	inactive: 0.003	inactive: 0.066
CYFIP2 (UniProt Q96F07)	inactive: 0.023	inactive: -0.049	inactive: 0.005	inactive: -0.007	inactive: 0.009	inactive: -0.014	inactive: -0.005	inactive: -0.008	inactive: 0.001	inactive: -0.024	inactive: -0.04	inactive: -0.041	inactive: 0.015	inactive: 0.013	inactive: 0.005
CYB5R3 isoform 3 (UniProt P00387)	inactive: -0.017	inactive: -0.006	inactive: -0.023	inactive: 0.027	inactive: -0.012	inactive: -0.061	inactive: -0.005	inactive: 0.026	inactive: -0.013	inactive: -0.006	inactive: 0.028	inactive: 0.081	inactive: -0.044	inactive: 0.006	inactive: 0.06
CYP20A1 (UniProt Q6UW02)	inactive: 0.035	inactive: -0.071	inactive: 0.007	inactive: -0.013	inactive: 0	inactive: 0.018	inactive: 0.001	inactive: -0.039	inactive: 0.023	inactive: 0.015	inactive: -0.002	inactive: 0.105	inactive: -0.016	inactive: -0.042	inactive: -0.004
CRYZ (UniProt Q08257)	inactive: 0.02	inactive: -0.021	inactive: 0	inactive: 0.014	inactive: -0.011	inactive: -0.027	inactive: 0.007	inactive: -0.019	inactive: -0.005	inactive: 0.003	inactive: 0.002	inactive: 0.124	inactive: -0.022	inactive: -0.001	inactive: 0.022
